Data on eight molecules can be found in paper doi:10.1101/2024.09.08.611915.

Amino acid sequences for entries named in this document (tags omitted). A change or cut given only in a name is not applied to a line headed by its entry. Chains listed by the source or under a name are the forms on record and can include a tag or linker.
VCP-D592AbK (VCP with AbK incorporated at D592, C-terminal 12X-His and 3X-FLAG tags) (P55072, form named): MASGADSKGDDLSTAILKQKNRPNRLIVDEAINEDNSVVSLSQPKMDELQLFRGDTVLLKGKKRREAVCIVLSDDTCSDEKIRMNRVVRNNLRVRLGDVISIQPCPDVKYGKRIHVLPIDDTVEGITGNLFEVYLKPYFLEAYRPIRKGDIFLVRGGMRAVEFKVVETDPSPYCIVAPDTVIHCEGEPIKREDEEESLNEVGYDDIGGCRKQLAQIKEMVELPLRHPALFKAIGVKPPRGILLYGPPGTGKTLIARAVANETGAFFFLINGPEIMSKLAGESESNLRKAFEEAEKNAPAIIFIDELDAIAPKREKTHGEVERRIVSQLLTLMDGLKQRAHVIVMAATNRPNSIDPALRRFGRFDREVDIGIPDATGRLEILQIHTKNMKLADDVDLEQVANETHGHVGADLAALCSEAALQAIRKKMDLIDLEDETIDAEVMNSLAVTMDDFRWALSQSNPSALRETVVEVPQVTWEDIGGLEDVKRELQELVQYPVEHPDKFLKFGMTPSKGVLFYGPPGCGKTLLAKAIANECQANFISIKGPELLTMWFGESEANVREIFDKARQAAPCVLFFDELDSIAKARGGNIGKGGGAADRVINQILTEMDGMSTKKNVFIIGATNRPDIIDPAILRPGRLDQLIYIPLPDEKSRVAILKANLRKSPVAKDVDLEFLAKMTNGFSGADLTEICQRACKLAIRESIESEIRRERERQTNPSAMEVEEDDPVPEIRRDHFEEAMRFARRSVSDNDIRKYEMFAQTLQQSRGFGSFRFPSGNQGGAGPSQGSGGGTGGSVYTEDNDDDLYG
VCP-L278AbK (VCP with AbK incorporated at L278, C-terminal 12X-His and 3X-FLAG tags) (P55072, form named): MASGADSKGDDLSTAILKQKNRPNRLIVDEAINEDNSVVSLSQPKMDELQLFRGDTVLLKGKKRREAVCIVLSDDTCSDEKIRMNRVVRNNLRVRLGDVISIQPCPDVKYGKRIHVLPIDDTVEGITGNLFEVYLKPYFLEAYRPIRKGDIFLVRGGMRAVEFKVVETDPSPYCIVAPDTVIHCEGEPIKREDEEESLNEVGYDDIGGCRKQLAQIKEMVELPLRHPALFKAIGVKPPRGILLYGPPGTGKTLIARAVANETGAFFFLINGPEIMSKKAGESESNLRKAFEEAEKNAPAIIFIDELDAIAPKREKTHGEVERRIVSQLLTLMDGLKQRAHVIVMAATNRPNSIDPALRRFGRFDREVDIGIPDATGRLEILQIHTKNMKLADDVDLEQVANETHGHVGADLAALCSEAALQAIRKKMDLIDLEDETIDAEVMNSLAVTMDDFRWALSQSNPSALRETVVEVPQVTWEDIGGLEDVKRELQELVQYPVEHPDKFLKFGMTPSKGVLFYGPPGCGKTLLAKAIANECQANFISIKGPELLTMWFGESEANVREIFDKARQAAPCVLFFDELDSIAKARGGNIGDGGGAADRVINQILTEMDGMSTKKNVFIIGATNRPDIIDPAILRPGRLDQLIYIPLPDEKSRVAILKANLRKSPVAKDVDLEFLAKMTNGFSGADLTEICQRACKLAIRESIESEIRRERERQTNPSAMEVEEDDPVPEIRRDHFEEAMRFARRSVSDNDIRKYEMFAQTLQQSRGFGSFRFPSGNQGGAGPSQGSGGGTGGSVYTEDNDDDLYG
UniProt Q70CQ2: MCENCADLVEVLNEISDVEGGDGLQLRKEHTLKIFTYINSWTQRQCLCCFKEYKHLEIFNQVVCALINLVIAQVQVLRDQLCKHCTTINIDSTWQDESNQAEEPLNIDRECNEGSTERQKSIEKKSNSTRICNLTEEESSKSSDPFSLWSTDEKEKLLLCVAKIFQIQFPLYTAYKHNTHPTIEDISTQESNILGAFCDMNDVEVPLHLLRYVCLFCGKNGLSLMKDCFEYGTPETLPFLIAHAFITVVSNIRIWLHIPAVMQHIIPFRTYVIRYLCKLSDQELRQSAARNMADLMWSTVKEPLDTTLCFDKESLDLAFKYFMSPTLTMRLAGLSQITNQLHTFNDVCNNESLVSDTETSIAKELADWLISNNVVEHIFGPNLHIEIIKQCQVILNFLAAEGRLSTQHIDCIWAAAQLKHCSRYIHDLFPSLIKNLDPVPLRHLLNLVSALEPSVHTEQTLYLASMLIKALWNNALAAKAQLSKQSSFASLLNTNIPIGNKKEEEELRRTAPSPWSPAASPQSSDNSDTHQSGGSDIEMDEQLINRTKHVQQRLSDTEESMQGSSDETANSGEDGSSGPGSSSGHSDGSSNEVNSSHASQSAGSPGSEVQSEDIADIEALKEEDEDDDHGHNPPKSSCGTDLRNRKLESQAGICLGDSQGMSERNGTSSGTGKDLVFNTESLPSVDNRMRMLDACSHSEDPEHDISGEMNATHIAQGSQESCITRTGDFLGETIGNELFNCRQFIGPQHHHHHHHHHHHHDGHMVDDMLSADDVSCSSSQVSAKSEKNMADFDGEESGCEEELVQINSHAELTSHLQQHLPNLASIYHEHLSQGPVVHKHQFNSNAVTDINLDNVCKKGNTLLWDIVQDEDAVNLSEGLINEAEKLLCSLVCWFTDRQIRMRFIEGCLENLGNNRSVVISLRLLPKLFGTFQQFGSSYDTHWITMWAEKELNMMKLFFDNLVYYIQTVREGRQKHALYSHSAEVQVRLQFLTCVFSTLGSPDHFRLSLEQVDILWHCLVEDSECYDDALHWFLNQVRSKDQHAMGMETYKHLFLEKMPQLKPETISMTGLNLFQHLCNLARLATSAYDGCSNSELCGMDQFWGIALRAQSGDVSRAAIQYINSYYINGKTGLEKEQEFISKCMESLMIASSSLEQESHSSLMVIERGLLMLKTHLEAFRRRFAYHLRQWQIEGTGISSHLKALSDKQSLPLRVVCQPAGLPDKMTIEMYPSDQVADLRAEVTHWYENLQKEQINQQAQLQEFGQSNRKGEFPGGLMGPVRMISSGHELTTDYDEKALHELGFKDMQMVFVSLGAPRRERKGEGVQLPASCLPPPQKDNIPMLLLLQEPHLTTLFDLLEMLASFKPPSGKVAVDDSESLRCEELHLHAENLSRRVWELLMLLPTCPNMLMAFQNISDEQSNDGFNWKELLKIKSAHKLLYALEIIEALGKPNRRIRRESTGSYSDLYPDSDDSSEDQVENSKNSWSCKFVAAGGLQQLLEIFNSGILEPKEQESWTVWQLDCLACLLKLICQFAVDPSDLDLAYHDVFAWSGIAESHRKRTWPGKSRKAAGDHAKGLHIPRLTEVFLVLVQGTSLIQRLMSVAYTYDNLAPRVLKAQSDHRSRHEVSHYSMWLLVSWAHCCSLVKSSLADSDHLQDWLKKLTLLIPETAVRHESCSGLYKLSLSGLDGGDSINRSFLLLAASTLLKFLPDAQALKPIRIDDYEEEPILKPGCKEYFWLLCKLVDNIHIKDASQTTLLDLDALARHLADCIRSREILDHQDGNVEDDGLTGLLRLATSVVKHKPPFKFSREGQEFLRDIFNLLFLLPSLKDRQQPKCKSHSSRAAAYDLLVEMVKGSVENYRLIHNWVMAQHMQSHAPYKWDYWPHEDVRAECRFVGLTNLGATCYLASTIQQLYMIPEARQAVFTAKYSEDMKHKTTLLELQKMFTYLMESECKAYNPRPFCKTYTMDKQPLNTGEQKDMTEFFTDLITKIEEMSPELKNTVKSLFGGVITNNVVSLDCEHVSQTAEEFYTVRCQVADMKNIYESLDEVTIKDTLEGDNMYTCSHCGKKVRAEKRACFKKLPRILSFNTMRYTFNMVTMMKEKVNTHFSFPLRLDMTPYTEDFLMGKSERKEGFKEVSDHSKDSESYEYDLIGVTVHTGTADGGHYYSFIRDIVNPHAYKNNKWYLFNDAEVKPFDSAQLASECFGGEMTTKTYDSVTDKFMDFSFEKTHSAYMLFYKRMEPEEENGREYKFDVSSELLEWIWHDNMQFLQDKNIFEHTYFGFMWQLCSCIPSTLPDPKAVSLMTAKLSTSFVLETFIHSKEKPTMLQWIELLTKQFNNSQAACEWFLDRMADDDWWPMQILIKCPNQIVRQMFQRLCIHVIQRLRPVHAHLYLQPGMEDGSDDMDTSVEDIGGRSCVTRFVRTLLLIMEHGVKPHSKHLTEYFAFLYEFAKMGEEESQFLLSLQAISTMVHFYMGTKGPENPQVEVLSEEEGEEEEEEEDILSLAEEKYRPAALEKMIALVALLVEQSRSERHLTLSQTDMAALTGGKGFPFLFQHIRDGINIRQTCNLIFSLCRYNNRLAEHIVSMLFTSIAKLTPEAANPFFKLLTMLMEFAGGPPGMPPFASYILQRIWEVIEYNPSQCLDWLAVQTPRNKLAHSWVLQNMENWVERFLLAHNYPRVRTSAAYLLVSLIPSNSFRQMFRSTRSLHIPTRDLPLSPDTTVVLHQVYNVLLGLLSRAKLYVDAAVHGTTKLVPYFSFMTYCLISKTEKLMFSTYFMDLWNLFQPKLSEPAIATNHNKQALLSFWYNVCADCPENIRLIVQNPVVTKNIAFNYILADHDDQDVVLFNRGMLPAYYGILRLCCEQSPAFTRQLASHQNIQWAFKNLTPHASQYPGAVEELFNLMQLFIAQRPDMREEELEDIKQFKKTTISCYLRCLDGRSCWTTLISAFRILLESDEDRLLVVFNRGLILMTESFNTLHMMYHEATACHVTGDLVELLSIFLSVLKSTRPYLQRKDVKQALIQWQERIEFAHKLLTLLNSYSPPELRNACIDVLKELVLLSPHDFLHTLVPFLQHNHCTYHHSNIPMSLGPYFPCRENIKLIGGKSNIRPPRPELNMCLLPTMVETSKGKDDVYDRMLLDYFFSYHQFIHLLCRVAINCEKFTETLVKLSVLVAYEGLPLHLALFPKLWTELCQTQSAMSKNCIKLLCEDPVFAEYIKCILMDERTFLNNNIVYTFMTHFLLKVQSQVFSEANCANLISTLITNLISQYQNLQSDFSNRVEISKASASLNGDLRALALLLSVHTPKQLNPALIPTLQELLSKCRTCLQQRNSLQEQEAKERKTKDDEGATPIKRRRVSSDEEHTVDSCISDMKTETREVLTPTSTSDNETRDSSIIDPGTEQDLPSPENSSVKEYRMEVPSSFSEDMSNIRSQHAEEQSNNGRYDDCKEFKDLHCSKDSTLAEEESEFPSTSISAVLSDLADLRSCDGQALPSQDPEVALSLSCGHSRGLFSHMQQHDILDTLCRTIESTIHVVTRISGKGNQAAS
UniProt P54252: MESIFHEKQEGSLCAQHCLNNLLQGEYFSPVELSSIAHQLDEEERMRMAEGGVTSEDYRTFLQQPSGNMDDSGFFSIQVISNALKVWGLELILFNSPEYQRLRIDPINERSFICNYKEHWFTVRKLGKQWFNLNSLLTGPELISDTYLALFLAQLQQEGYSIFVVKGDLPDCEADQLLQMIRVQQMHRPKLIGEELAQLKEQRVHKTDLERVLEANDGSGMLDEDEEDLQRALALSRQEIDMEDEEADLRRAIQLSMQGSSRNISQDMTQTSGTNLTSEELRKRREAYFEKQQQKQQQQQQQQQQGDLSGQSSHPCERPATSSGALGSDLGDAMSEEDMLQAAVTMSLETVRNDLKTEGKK

For assay [1], the target named is VCP-D592AbK (VCP with AbK incorporated at D592, C-terminal 12X-His and 3X-FLAG tags) (human) (UniProt P55072). Kind of assay: cross-linking.
Assay [2] deals with VCP-L278AbK (VCP with AbK incorporated at L278, C-terminal 12X-His and 3X-FLAG tags) (human) (UniProt P55072). Kind of assay: cross-linking.
Assay [3] concerns the target VCP-D592AbK (VCP with AbK incorporated at D592, C-terminal 12X-His and 3X-FLAG tags) (human) (UniProt P55072). Nature of the assay: cross-linking. This is another data set of the same source.
The target in assay [4] is VCPIP1 ΔUBX-L (aa 1-743) (human) (UniProt Q96JH7). Kind of assay: mass photometry.
Assay [5] addresses VCP-L278AbK (VCP with AbK incorporated at L278, C-terminal 12X-His and 3X-FLAG tags) (human) (UniProt P55072). Kind of assay: cross-linking. The source holds these as a separate data set.

Where two headings read alike, the source gives them in different places. Results are given in words; binding and its absence hold for the method and conditions named. For some of these results: Binding seen in cells or lysates may run through a third protein. Some results given as binding are weak or reduced against the parent protein; the word gives no strength.

“UBP34 (from UniProt Q70CQ2 1-3546) (enzyme)”: in assay [1], the binding entry is “binds”.

“ataxin-3 (from UniProt P54252 1-361) (enzyme)”: the binding result in assay [1] and in assay [2] was “no binding” in each case.

For “USP9X (from UniProt Q93008 1-2554) (enzyme)”, the binding result in assay [2] is reported as “binds”.

B1: UBXN1 (protein, UniProt Q04323 1-297)
chain: MAELTALESLIEMGFPRGRAEKALALTGNQGIEAAMDWLMEHEDDPDVDEPLETPLGHILGREPTSSEQGGLEGSGSAAGEGKPALSEEERQEQTKRMLELVAQKQREREEREEREALERERQRRRQGQELSAARQRLQEDEMRRAAEERRREKAEELAARQRVREKIERDKAERAKKYGGSVGSQPPPVAPEPGPVPSSPSQEPPTKREYDQCRIQVRLPDGTSLTQTFRAREQLAAVRLYVELHRGEELGGGQDPVQLLSGFPRRAFSEADMERPLQELGLVPSAVLIVAKKCPS
As to B1, in assay [3], the binding entry is given as “binds”.

B2: VCPIP1 ΔUBX-L (aa 1-743) (domain or fragment, UniProt Q96JH7 1-743)
chain: MSQPPPPPPPLPPPPPPPEAPQTPSSLASAAASGGLLKRRDRRILSGSCPDPKCQARLFFPASGSVSIECTECGQRHEQQQLLGVEEVTDPDVVLHNLLRNALLGVTGAPKKNTELVKVMGLSNYHCKLLSPILARYGMDKQTGRAKLLRDMNQGELFDCALLGDRAFLIEPEHVNTVGYGKDRSGSLLYLHDTLEDIKRANKSQECLIPVHVDGDGHCLVHAVSRALVGRELFWHALRENLKQHFQQHLARYQALFHDFIDAAEWEDIINECDPLFVPPEGVPLGLRNIHIFGLANVLHRPIILLDSLSGMRSSGDYSATFLPGLIPAEKCTGKDGHLNKPICIAWSSSGRNHYIPLVGIKGAALPKLPMNLLPKAWGVPQDLIKKYIKLEEDGGCVIGGDRSLQDKYLLRLVAAMEEVFMDKHGIHPSLVADVHQYFYRRTGVIGVQPEEVTAAAKKAVMDNRLHKCLLCGALSELHVPPEWLAPGGKLYNLAKSTHGQLRTDKNYSFPLNNLVCSYDSVKDVLVPDYGMSNLTACNWCHGTSVRKVRGDGSIVYLDGDRTNSRSTGGKCGCGFKHFWDGKEYDNLPEAFPITLEWGGRVVRETVYWFQYESDSSLNSNVYDVAMKLVTKHFPGEFGSEILVQKVVHTILHQTAKKNPDDYTPVNIDGAHAQRVGDVQGQESESQLPTKIILTGQKTKTLHKEELNMSKTERTIQQNITEQASVMQKRKTEKLKQEQKGQP
Regarding B2, the binding entry in assay [4] is listed as “no binding (tested: 100 nM)”.

B3: UBP19 (enzyme, UniProt O94966 1-1318)
chain: MSGGASATGPRRGPPGLEDTTSKKKQKDRANQESKDGDPRKETGSRYVAQAGLEPLASGDPSASASHAAGITGSRHRTRLFFPSSSGSASTPQEEQTKEGACEDPHDLLATPTPELLLDWRQSAEEVIVKLRVGVGPLQLEDVDAAFTDTDCVVRFAGGQQWGGVFYAEIKSSCAKVQTRKGSLLHLTLPKKVPMLTWPSLLVEADEQLCIPPLNSQTCLLGSEENLAPLAGEKAVPPGNDPVSPAMVRSRNPGKDDCAKEEMAVAADAATLVDEPESMVNLAFVKNDSYEKGPDSVVVHVYVKEICRDTSRVLFREQDFTLIFQTRDGNFLRLHPGCGPHTTFRWQVKLRNLIEPEQCTFCFTASRIDICLRKRQSQRWGGLEAPAARVGGAKVAVPTGPTPLDSTPPGGAPHPLTGQEEARAVEKDKSKARSEDTGLDSVATRTPMEHVTPKPETHLASPKPTCMVPPMPHSPVSGDSVEEEEEEEKKVCLPGFTGLVNLGNTCFMNSVIQSLSNTRELRDFFHDRSFEAEINYNNPLGTGGRLAIGFAVLLRALWKGTHHAFQPSKLKAIVASKASQFTGYAQHDAQEFMAFLLDGLHEDLNRIQNKPYTETVDSDGRPDEVVAEEAWQRHKMRNDSFIVDLFQGQYKSKLVCPVCAKVSITFDPFLYLPVPLPQKQKVLPVFYFAREPHSKPIKFLVSVSKENSTASEVLDSLSQSVHVKPENLRLAEVIKNRFHRVFLPSHSLDTVSPSDTLLCFELLSSELAKERVVVLEVQQRPQVPSVPISKCAACQRKQQSEDEKLKRCTRCYRVGYCNQLCQKTHWPDHKGLCRPENIGYPFLVSVPASRLTYARLAQLLEGYARYSVSVFQPPFQPGRMALESQSPGCTTLLSTGSLEAGDSERDPIQPPELQLVTPMAEGDTGLPRVWAAPDRGPVPSTSGISSEMLASGPIEVGSLPAGERVSRPEAAVPGYQHPSEAMNAHTPQFFIYKIDSSNREQRLEDKGDTPLELGDDCSLALVWRNNERLQEFVLVASKELECAEDPGSAGEAARAGHFTLDQCLNLFTRPEVLAPEEAWYCPQCKQHREASKQLLLWRLPNVLIVQLKRFSFRSFIWRDKINDLVEFPVRNLDLSKFCIGQKEEQLPSYDLYAVINHYGGMIGGHYTACARLPNDRSSQRSDVGWRLFDDSTVTTVDESQVVTRYAYVLFYRRRNSPVERPPRAGHSEHHPDLGPAAEAAASQASRIWQELEAEEEPVPEGSGPLGPWGPQDWVGPLPRGPTTPDEGCLRYFVLGTVAALVALVLNVFYPLVSQSRWR
With B3, the binding result in assay [3] is listed as “binds”.

B4: USP13 (enzyme, UniProt Q92995 1-863)
chain: MQRRGALFGMPGGSGGRKMAAGDIGELLVPHMPTIRVPRSGDRVYKNECAFSYDSPNSEGGLYVCMNTFLAFGREHVERHFRKTGQSVYMHLKRHVREKVRGASGGALPKRRNSKIFLDLDTDDDLNSDDYEYEDEAKLVIFPDHYEIALPNIEELPALVTIACDAVLSSKSPYRKQDPDTWENELPVSKYANNLTQLDNGVRIPPSGWKCARCDLRENLWLNLTDGSVLCGKWFFDSSGGNGHALEHYRDMGYPLAVKLGTITPDGADVYSFQEEEPVLDPHLAKHLAHFGIDMLHMHGTENGLQDNDIKLRVSEWEVIQESGTKLKPMYGPGYTGLKNLGNSCYLSSVMQAIFSIPEFQRAYVGNLPRIFDYSPLDPTQDFNTQMTKLGHGLLSGQYSKPPVKSELIEQVMKEEHKPQQNGISPRMFKAFVSKSHPEFSSNRQQDAQEFFLHLVNLVERNRIGSENPSDVFRFLVEERIQCCQTRKVRYTERVDYLMQLPVAMEAATNKDELIAYELTRREAEANRRPLPELVRAKIPFSACLQAFSEPENVDDFWSSALQAKSAGVKTSRFASFPEYLVVQIKKFTFGLDWVPKKFDVSIDMPDLLDINHLRARGLQPGEEELPDISPPIVIPDDSKDRLMNQLIDPSDIDESSVMQLAEMGFPLEACRKAVYFTGNMGAEVAFNWIIVHMEEPDFAEPLTMPGYGGAASAGASVFGASGLDNQPPEEIVAIITSMGFQRNQAIQALRATNNNLERALDWIFSHPEFEEDSDFVIEMENNANANIISEAKPEGPRVKDGSGTYELFAFISHMGTSTMSGHYICHIKKEGRWVIYNDHKVCASERPPKDLGYMYFYRRIPS
For B4, the binding result in assay [3] and in assay [5] was “no binding” throughout.

B5: NSF1C/p47 (protein, UniProt Q9UNZ2 1-370)
chain: MAAERQEALREFVAVTGAEEDRARFFLESAGWDLQIALASFYEDGGDEDIVTISQATPSSVSRGTAPSDNRVTSFRDLIHDQDEDEEEEEGQRFYAGGSERSGQQIVGPPRKKSPNELVDDLFKGAKEHGAVAVERVTKSPGETSKPRPFAGGGYRLGAAPEEESAYVAGEKRQHSSQDVHVVLKLWKSGFSLDNGELRSYQDPSNAQFLESIRRGEVPAELRRLAHGGQVNLDMEDHRDEDFVKPKGAFKAFTGEGQKLGSTAPQVLSTSSPAQQAENEAKASSSILIDESEPTTNIQIRLADGGRLVQKFNHSHRISDIRLFIVDARPAMAATSFILMTTFPNKELADESQTLKEANLLNAVIVQRLT
Take B5: in assay [5], the binding result is on record as “binds”.
